Test results: article PMC3763551, “The tRNA recognition mechanism of the minimalist SPOUT methyltransferase, TrmL” (Nucleic Acids Research, 2013)
Results are given in words; binding and its absence hold for the method and conditions named.

Biological target: EcTrmL-Y142A (E. coli) (UniProt P0AGJ7)
Assay: SEC; analytical gel filtration, Superdex 75 (10/30), 20 mM Tris-HCl pH 7.5, 100 mM NaCl, 5 mM MgCl2, 5 mM beta-Me, 300 ul injected, 0.5 ml/min, against standard proteins; both purified

binding: no binding
B1: EcTrmL-Y142A (enzyme, UniProt P0AGJ7 1-157)
chain: MLNIVLYEPEIPPNTGNIIRLCANTGFRLHIIEPMGFAWDDKRLRRAGLDYHEFTAVTRHHDYRAFLEAENPQRLFALTTKGTPAHSAVSYQDGDYLMFGPETRGLPASILDALPAEQKIRIPMVPDSRSMNLSNAVSVVVAEAWRQLGYPGAVLRD
